Laboratory results reported in patent US20180072815A1.
Where two headings read alike, the source gives them in different places. Results are given in words; binding and its absence hold for the method and conditions named. Some binding calls cover weakened binding; strength is not graded here.

The chains behind the UniProt entries cited, without tags or fusion partners. Residues count along the entry.
UniProt P01375, residues 77-233: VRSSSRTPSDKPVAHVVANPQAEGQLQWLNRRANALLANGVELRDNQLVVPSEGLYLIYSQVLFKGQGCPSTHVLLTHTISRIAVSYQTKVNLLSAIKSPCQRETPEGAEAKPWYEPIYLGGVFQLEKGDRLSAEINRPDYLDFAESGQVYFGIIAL

Tests used:
[1] = biological target: active human TNF-α full length protein (Abcam) (human) (UniProt P01375); experiment: ELISA on coated TNF-α, four 10-fold dilutions of sdAb starting at 1 µg/mL
[2] = biological target: active human TNF-α full length protein (Abcam) (human) (UniProt P01375)
[3] = biological target: active human TNF-α full length protein (Abcam) (human) (UniProt P01375); remark: listed apart in the source
[4] = biological target: active human TNF-α full length protein (Abcam) (human) (UniProt P01375); experiment: ELISA on coated TNF-α

Measured: binding

B1: anti-TNF-α VHH69 (SEQ ID NO:46) sdAb (VHH)
VHH: EVQLVESGGGSVLAGGSLRLSCVASGFTSRYNYMAWFRQAPGKEREGVATIGTASGSADYYGSVKDRFTISQDNAKNTVYLQMNSLKPEDTAMYYCAARTYGTISLTPSDYRYWGQGTLVTVSS
binds: [1] | [2] | [3] | [4]
